These results are taken from PubChem BioAssay AID1347423 (Functional Genomics Laboratory (NCATS/FGL), 2020).

Screen size: about 52,000 sequences; about 210 (0.4%) were called active.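 How the source made its calls: active means gene whose silencing raises cell survival under the drug, median off-target-corrected z-score across its silencing RNAs 2 or more; inactive means the rest.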 Some of the results follow.

This assay in a line: Resistance to Poly (ADP-Ribose) Polymerase inhibitor: Gene Identification via Genome-wide siRNA Screen. Conditions: mouse BRCA2 R2336H ES cells, olaparib, CellTiter-Glo viability; stronger effect = higher value. In short, it runs like this:
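Mouse BRCA2 R2336H ES cells were reverse-transfected with siRNA (20 nM final), treated at 48 h with 500 nM olaparib, and read by CellTiter-Glo after 72 h. Scores: MAD-based z per siRNA, median per gene, seed off-target correction.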
(In general: Cellular ATP, detected with luciferase, serves as a proxy for viable cell number.)
For the sequence GGCAUUGUGAUUCUUUGUCTT against Tal1, the z-score is inactive: -0.684.
Consider GCCCAUGGAUACUACUUCATT against Syncrip, for which the z-score was inactive: 1.33.
For GAGAGAGGGAAUUUGCUCCTT against Pcdhb8, the z-score is inactive: -0.173.
In the case of “GGAAGUAUCGAGAUUCAUGTT against A330068P14Rik”, the z-score is inactive: -0.372.
The figure for “GCACAUAGUAAGAACUUAUTT against 2010316F05Rik” is inactive: -1.03; for “GGAGGCAAUUCAGAAGUGGTT against 2900001O04Rik” it is inactive: -0.453; for GGAAGGUCUUCGAGAUUUUTT against Gpr75 it is inactive: 1.85.
The figure for “GGAAGUGAUUCUGCUAUGUTT against 2610510J17Rik” is inactive: -1.91.
Take “GCUUUAAGCCCUGCUCUGUTT against D030069K18”: the z-score was inactive: -0.886.
The figure for GGUACGAAAAAUUCCUACGTT against Ang4 is inactive: 0.344; for GGAAAGUGUGUGUUAUAUUTT against Zfp358 it is inactive: 1.97; for “GCAACAAGCUUUCUGUGCGTT against 4933403G14Rik” it is inactive: 1.4.
The figure for “GGAAUACCAGACCACACUGTT against 5430435G22Rik” is inactive: -0.285.
The same measure for GGAAAAAACGCACCAGCAUTT against Pou2f1: inactive: -0.673; for GCUACAGAUUUCAGGAAAGTT against Gm1128: inactive: 1.85.
As to CCUGAUCUCAGCCUAUACUTT against Rapgef6, the z-score is inactive: 2.52.
The same measure for GGUAAAUGACAACUUUCUUTT against Slco6b1: inactive: -0.233; for GGUGAAGCAAAACGGAGGATT against H2-M10.1: inactive: 0.687; for GCAUCGAAGAGUACCUUCATT against Zfhx1b: inactive: -0.293.
The same measure for GGCUUUCAGGAUAUCAUUUTT against Hist1h3f: inactive: 0.25.
The figure for “GGAGUAUGCGUGUUGCCAATT against 1700018B08Rik” is inactive: 1.36; for UAUUACAAUGAUCACUGGCTT against Idb1 it is inactive: 0.0274.
As for GCUGUAAGGAGGAACUUCUTT against Btg1, the z-score is inactive: 1.65.
The figure for GAUUACCGCACUUCAGAUCTT against BC088983 is inactive: -1.94.
On to GGGAAUUCCUCAGUUCAAATT against Adam7, for which the z-score was inactive: -0.528.
On to GGAAGUGAUUGAAAUGGUGTT against Ror1, for which the z-score was inactive: -1.77.
Turning to GGAGAAAAAACUAAAGGAGTT against Abca3, the z-score was inactive: 1.28.
The same measure for GAGGCUGUUAGAGAAAACGTT against Frat2: inactive: -0.497.
The same measure for “GGAACUGAGCCAAGAAGCUTT against 1700058C01Rik”: inactive: -0.232; for “GGAGGCUCAAGUCCAUCACTT against A930104D05Rik”: inactive: 0.023; for GGAUUUUCCUGAUGAGGUUTT against Cdk5rap1: inactive: -1.89.
The figure for GCCAGACUUUGUUUUUGCUTT against BC061212 is inactive: -0.31; for GGCAGUAGCAUUUAGAAGGTT against Socs3 it is inactive: 0.307.
On to “GCACAUUGAUGCUUAAACGTT against 2310014H19Rik”, for which the z-score was inactive: -1.69.
For GGCUUUCAAGCUAACUGAUTT against Sf3b2, the z-score is inactive: -3.27.
For GUGCAGGUCCUAAUCUGAATT against Asb1, the z-score is inactive: -2.07.
As for “GCUUGAGUUGGACCUUCACTT against A930031F18Rik”, the z-score was inactive: 1.27.
The figure for GCCAGCAACAGGAUGAUAUTT against Prkwnk1 is inactive: -1.02; for “GGCUGUUCUACGAAGAAAATT against 4921517D22Rik” it is inactive: -0.442; for GCUCAAAUAACUCCACCACTT against Pola1 it is inactive: -1.11.
For CCGGCUCAUCCAUUAUUGGTT against Atp6v0b, the z-score is inactive: -0.185.
The same measure for “GGUUUUCUACAGGAGAGACTT against 9430015G10Rik”: inactive: 2.39.
The same measure for GUAGAGGUUAUAUAGCAGATT against Ms4a6d: inactive: 0.457; for CCUAUACCGAGCAAACAUCTT against Crebbp: inactive: 1.14.
Turning to GGCAACUUGCUCAUCAUUGTT against Olfr1356, the z-score is inactive: 0.57.
Turning to GCUCACCACGCUAAACUGUTT against Trpm6, the z-score was inactive: 0.68.
The same measure for GGAGGACUGCCAGAAAUACTT against Myd88: inactive: 1.63; for CCUACAUCCUCGCUUUUGCTT against Ptcd2: inactive: -0.0113.
For the sequence GGAGGCCCAAUGAUUAGCATT against Ntan1, the z-score is inactive: -1.55.
The figure for “GGACACUUCCAUGUGCUACTT against 1500031L02Rik” is inactive: 0.526; for GGAUUCACACCGUGAAGGUTT against AI256775 it is inactive: 0.231; for CCAAGUUCUCAUGGUUCUGTT against Serpina3k it is inactive: -1.59.
As for GCCCUGAACUACCUAGAAATT against Alg5, the z-score is inactive: -0.585.
The same measure for CCAUCAAUUUGGAGACUAUTT against Cav1: inactive: -1.07; for GGAACAUGUUUAUAUGGUATT against Iigp1: inactive: 0.979; for GGGAUUUACACUCACUCCUTT against Tle2: inactive: 0.0573.
The figure for GGAAUUGUCUAAAUUGGCUTT against Hoxd1 is inactive: 1.63; for GGCAUCUCCACCUUUUCAUTT against Abcc9 it is inactive: 1.66; for “GGUUAUCCUGUUACAGUACTT against 2610039E05Rik” it is inactive: -1.58.
Take GGAAUUCAAAACCUUCUAUTT against Rai14: the z-score is inactive: -0.067.
The figure for GGAGAGCUCCUAUAAUCCUTT against Plau is inactive: -0.657; for CCCAAAUAACAGAGAAAUGTT against Siat8f it is inactive: 3.16.
The same measure for GCUGUUGAUUGUAAGCAAUTT against Mtap: inactive: 0.21.
The figure for “GCGUAUCUUCAACGUGGGATT against 9130227C08Rik” is inactive: 0.104; for CCAGUUCAGAGAUUAUCUUTT against Olfr826 it is inactive: 0.032.
In the case of GGAGGAGAAGAAACACCUGTT against Kns2, the z-score was inactive: 0.627.
The same measure for GGCACUCCUGAUGUUCUCUTT against Cyb561d2: inactive: -0.852; for AAGAGCCAUUAAUCGAGAATT against Cklf: inactive: -0.618; for GGUGGAAGCUAGAAACCUATT against Cpne1: inactive: 1.28.
The same measure for GGGAAAAGCAAACACUAAUTT against C1d: inactive: 1.58; for GGCUGAGAUCUGAAAUUGATT against Krt2-5: inactive: 0.59.
The same measure for GGGAUGCUUUGUUGCUGUUTT against Olfr836: inactive: -0.872.
As for CGCGUAGAUAAGAAGUAUUTT against Anks1, the z-score is inactive: 0.276.
The same measure for “GAGGGAAACUAUUCUAGACTT against 1700113O17Rik”: inactive: -0.763; for GCUGAGGUAUUCAUUAUAGTT against LOC260408: inactive: 1.33; for GGUUUUUAUACUCUGGGAUTT against Elavl1: inactive: 2.57.
The figure for CCAUAGGUUUCGGCAUGACTT against Kcnk12 is inactive: -0.356; for “GGAUGAGGACAAACACGUGTT against 1810023B24Rik” it is inactive: -0.497; for CCUCAUCAAGACCUACAAGTT against Dyrk1b it is inactive: 0.575.
The figure for GGAUAUGCUGUGAAGUAUUTT against Plekhf2 is inactive: -0.892.
Consider GGAAGAUGCGCUUUCACAUTT against BC049816, for which the z-score is inactive: -0.0215.
The figure for GCAUACAAUCAUGUAAGAGTT against Adprh is inactive: 0.333.
The same measure for GGACCGAGUACACCAUGAGTT against Calu: inactive: 1.56; for “GCCUAGCAUUCUUGUGCAATT against 1700093K21Rik”: inactive: 0.598; for GCAAAAUGAGAUAGAUCGUTT against Nxf: inactive: 0.322.
As for GGCCGCAUACUGAUGAAAGTT against Scgn, the z-score was inactive: 0.642.
The same measure for GAAGACUUCAAUCAACCAGTT against Trim6: inactive: -1.32; for GGACUUCAUGGCUAGUUUCTT against B4galt4: inactive: -1.11.
The figure for “GCAUUACACUUAACUGACGTT against 9530033F24Rik” is inactive: 0.082; for GCUAUUCGGCUAAAGCAGCTT against Etfdh it is inactive: -0.272.
The same measure for “CCGGCUAAUACUGUUGUGGTT against 0610009C03Rik”: inactive: -0.821; for “GCAUGACAGUCAACACAAGTT against 4930471M23Rik”: inactive: 0.21; for “GGUAGUUAACACAAAAUUGTT against 4932438H23Rik”: inactive: 1.1.
Regarding GGGCACCAUCAACAUGAACTT against AA536749, the z-score was inactive: 0.0864.
The same measure for GGAGUCCCAAACCUUCUCATT against Spata3: inactive: -0.208.
The figure for CCUGGUAUACGUUUACAAUTT against Lama4 is inactive: 0.457; for “GGGCUUCACUCCACUGCAUTT against G431002C21Rik” it is inactive: -0.236.
The figure for GCUCAUAAAAUGGCUACUGTT against LOC406217 is inactive: -0.269; for CGGUGGAAAUACCAGGAUGTT against Tshb it is inactive: 2.17; for GCCCACCAUGUCGUAUGUGTT against Hils1 it is inactive: -0.142.
Take GGAACUCAAACUUUUCGUATT against Mtap1b: the z-score was inactive: -0.379.
GGAUUGAAGUCCCUUUACUTT against Zdhhc16: the z-score was inactive: 0.352.
The same measure for GCUGUACCCAUCUGAUCACTT against Galntl2: inactive: 0.7.
